Source: the supplement of paper PMC10689618
Counter-ions that a name gives are not always drawn. ± gives the standard deviation of the averaged measurements. The list shows a part of the results. Single values are uncertain, as repeats are few or missing.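 Primary human fetal astrocytes engulfed labelled rat cortical synaptosomes, measured as a red/green ratio corrected for calcein live-cell signal and scaled to the plate median. Toxicity meant calcein falling over 30%; decreased phagocytosis meant below 70% of median above 5 µM.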

How the values were obtained:
[1] = tested on: Human fetal astrocytes; assay: loss of total cells relative to no-compound high-control median (toxicity); higher = more toxic (fewer cells); conditions: 24 h
[2] = tested on: Human fetal astrocytes; assay: synaptosome phagocytosis (pHrodo/calcein intensity ratio) relative to plate median of data wells; higher = more phagocytosis; conditions: 24 h

Row | Structure (SMILES) | loss of total cells ([1]; 1.39 µM) [%] | loss of total cells ([1]; 2.78 µM) [%] | loss of total cells ([1]; 5.56 µM) [%] | loss of total cells ([1]; 11.11 µM) [%] | loss of total cells ([1]; 22.22 µM) [%] | synaptosome phagocytosis ([2]; 1.39 µM) [%] | synaptosome phagocytosis ([2]; 2.78 µM) [%] | synaptosome phagocytosis ([2]; 5.56 µM) [%] | synaptosome phagocytosis ([2]; 11.11 µM) [%] | synaptosome phagocytosis ([2]; 22.22 µM) [%]
1 | CC(=O)OCC(=O)[C@@]1(O)CC[C@H]2[C@@H]3CCC4=CC(=O)CC[C@]4(C)[C@H]3C(=O)C[C@@]21C [Cortisone 21-acetate] | -5.5 | -4.5 | -1.4 | -13 | 7.9 | 144 | 101 | 126 | 83.9 | 116
2 | CCCN(CCc1ccccc1)C1CCc2c(O)cccc2C1 (racemic) [(±)-PPHT hydrochloride] | -20.8 | -17.1 | -10.1 | -24.9 | -39.5 | 91.5 | 120 | 82.1 | 102 | 85.1
3 | Cn1cc(C(=O)OCC2CCN(CCNS(C)(=O)=O)CC2)c2ccccc21 | -8.1 | -22.3 | -6.9 | -16.6 | 9.4 | 117 | 124 | 90 | 90.9 | 112
4 | NC(Cc1cccc(-c2ccccc2CP(=O)(O)O)c1)C(=O)O (stereo not drawn) [Phenylbenzene-omega-phosphono-alpha-amino acid] | -2.8 | -23.1 | -16.3 | -13.4 | -34.6 | 113 | 117 | 107 | 106 | 128
5 | CCn1cc(C(=O)O)c(=O)c2ccc(C)nc21 [Nalidixic acid sodium] | -10 | 8.6 | 6.1 | 2.9 | 17.8 | 96.2 | 104 | 98.7 | 97.7 | 101
6 | O=c1cc(N2CCOCC2)oc2c(-c3ccccc3)cccc12 [LY-294,002 hydrochloride] | -17.5 | -14.9 | -6.1 | -8.6 | 20.6 | 97.9 | 112 | 109 | 64.4 | 82.9
7 | C=CC[C@H](N)C(=O)O [L-allylglycine] | 2.9 | -3.9 | -24.4 | -7.6 | 7.9 | 129 | 110 | 158 | 127 | 96.1
8 | NC(C(=O)O)C(O)C(=O)O (racemic) [DL-threo-beta-hydroxyaspartic acid] | -41.4 | -17.9 | -14 | -11.2 | 3.2 | 97.3 | 114 | 92.9 | 98.9 | 145
9 | O=c1[nH]c(=O)n([C@H]2C[C@H](O)[C@@H](CO)O2)cc1/C=C/Br [(E)-5-(2-Bromovinyl)-2'-deoxyuridine] | -7 | -18.6 | -25.3 | 0.4 | 5.6 | 86.7 | 117 | 121 | 127 | 116
10 | CCn1nc(C(=O)O)c(=O)c2cc3c(cc21)OCO3 [Cinoxacin] | -17.6 | -16.2 | -5.1 | 1.3 | 4.1 | 87.9 | 88.1 | 109 | 88.4 | 73.3
11 | O=c1onc2n1-c1cc(Br)ccc1OC2 | -27 | 17.6 | 13.6 | 18.1 | -10.3 | 114 | 128 | 145 | 149 | 127
12 | CC(=O)O[C@]1(C(C)=O)CC[C@H]2[C@@H]3C=C(Cl)C4=CC(=O)[C@@H]5C[C@@H]5[C@]4(C)[C@H]3CC[C@@]21C [Cyproterone acetate] | -1.5 | 7.2 | -16.1 | -17.5 | -7.1 | 151 | 113 | 107 | 94.3 | 109
13 | Oc1ccc(C2CNCCc3c2cc(O)c(O)c3Cl)cc1 (stereo not given) [Fenoldopam bromide] | -5.4 | -12 | -14.8 | -12.1 | 4.8 | 86.2 | 127 | 118 | 97.2 | 130
14 | COc1ccc2c(c1)c(CC(=O)O)c(C)n2Cc1ccc(F)cc1 [1-(4-Fluorobenzyl)-5-methoxy-2-methylindole-3-acetic acid] | -11.3 | -19.7 | -12.3 | -13 | 5.6 | 110 | 76.5 | 113 | 124 | 116
15 | Cc1ccccc1N1CCN(S(=O)(=O)C[C@]23CC[C@H](CC2NC(=O)[C@@H](N)CCS(C)(=O)=O)C3(C)C)CC1 (stereo not given in full) | -8.1 | 3.2 | -0.5 | 6.7 | 26.2 | 103 | 88.7 | 104 | 132 | 85.2
16 | CC(C)(Oc1ccc(C2CC2(Cl)Cl)cc1)C(=O)O (stereo not given) [Ciprofibrate] | -20.6 | -9.3 | -22.6 | -13 | -13.9 | 89.3 | 98.2 | 90 | 115 | 111
17 | CC#CCOC(=O)c1c(C)nc2sc3c(c2c1N)CCC(O)C3 (stereo not given) | -11.5 | -9.3 | -34.8 | -2.7 | -32.1 | 77.7 | 85.8 | 76 | 90.8 | 113
18 | NC(=O)c1ccccc1 [Benzamide] | -9.2 | -1.2 | 9.7 | -10.3 | 13.2 | 118 | 87.4 | 96.3 | 74.2 | 75.6
19 | COc1cc2ncnc(Nc3cccc(Cl)c3)c2cc1OC [Tyrphostin AG 1478] | -23.3 | -25.4 | -14.6 | -27.2 | -23.9 | 111 | 78.6 | 99.6 | 89.9 | 99.6
20 | CC1=C(CC(=O)O)c2cc(F)ccc2/C1=C\c1ccc(S(C)(=O)=O)cc1 [Sulindac sulfone] | -21.4 | -23.1 | -16.9 | -16.5 | -30.5 | 94.4 | 88 | 95.9 | 94.4 | 94.1

Some values from above:
For synaptosome phagocytosis ([2]; 5.56 µM) [%], NC(C(=O)O)C(O)C(=O)O (racemic) [DL-threo-beta-hydroxyaspartic acid] is listed with 92.9
For loss of total cells ([1]; 5.56 µM) [%], Cc1ccccc1N1CCN(S(=O)(=O)C[C@]23CC[C@H](CC2NC(=O)[C@@H](N)CCS(C)(=O)=O)C3(C)C)CC1 (stereo not given in full) is listed with -0.5

Remaining list, next part

Row | Structure (SMILES) | loss of total cells ([1]; 1.39 µM) [%] | loss of total cells ([1]; 2.78 µM) [%] | loss of total cells ([1]; 5.56 µM) [%] | loss of total cells ([1]; 11.11 µM) [%] | loss of total cells ([1]; 22.22 µM) [%] | synaptosome phagocytosis ([2]; 1.39 µM) [%] | synaptosome phagocytosis ([2]; 2.78 µM) [%] | synaptosome phagocytosis ([2]; 5.56 µM) [%] | synaptosome phagocytosis ([2]; 11.11 µM) [%] | synaptosome phagocytosis ([2]; 22.22 µM) [%]
21 | O=C(NCCNCC(O)COc1ccc(O)cc1)N1CCOCC1 (stereo not given) [Xamoterol hemifumarate] | -17.1 | -32.6 | -10.1 | -24.9 | -38.7 | 133 | 87.8 | 94.6 | 140 | 122
22 | C[C@]12C=CC(=O)C=C1CC[C@@H]1C2=CC[C@]2(C)[C@@H](C(=O)CN3CCN(c4cc(N5CCCC5)nc(N5CCCC5)n4)CC3)CC[C@@H]12 | -2.2 | -12.3 | -3.4 | -3.4 | -22.2 | 86.2 | 96 | 74.2 | 91.5 | 103
23 | O=c1c2ccccc2[nH]c(=S)n1CCN1CCC(=C(c2ccc(F)cc2)c2ccc(F)cc2)CC1 [Diacylglycerol Kinase Inhibitor II] | 17.2 | -11.1 | 9.1 | 2.2 | 14.4 | 88.3 | 84.2 | 84.4 | 74.6 | 72.9
24 | COc1cc(C(O)CO)ccc1OS(=O)(=O)O (stereo not given) [MHPG sulfate potassium] | 3.8 | -15.4 | -2.5 | -4.9 | 0.8 | 81 | 75.1 | 120 | 96.7 | 95.5
25 | CCOC(=O)C1=C[C@]2(CC)CCCN3CCc4c(n1c1ccccc41)[C@@H]32 [Vinpocetine] | -14 | -30.2 | 0 | -30.3 | -38.7 | 101 | 96.8 | 126 | 99.6 | 100
26 | CSc1ccc2c(c1)N(CCC1CCCCN1C)c1ccccc1S2 (stereo not given) [Thioridazine hydrochloride] | -23.3 | -3.9 | -1.1 | 11.9 | 31.3 | 101 | 59.6 | 81.4 | 40.6 | 29.8
27 | CCCCCC(O)CCCC(=O)O (stereo not given) [5-hydroxydecanoic acid sodium] | -4.6 | -3.4 | -9.1 | -28.3 | -4.8 | 104 | 99.6 | 63 | 93.8 | 98
28 | COc1ccc(CCCOC(Cn2ccnc2)c2ccc(OC)cc2)cc1 (stereo not given) | 2.2 | -17.7 | 1.7 | 7.3 | -10.7 | 2.4 | 11.3 | 27.6 | 12 | 3.9
29 | NCCC(=O)NCCc1c[nH]cn1 [Carcinine dihydrochloride] | -20.2 | -9.9 | -5.1 | -8.5 | -3.4 | 97.4 | 91.6 | 96.7 | 110 | 105
30 | O=S(=O)(c1cccc2cnccc12)N1CCNCC1 | 4.6 | -13.7 | -7.4 | -15.7 | -10.4 | 109 | 78.4 | 84.9 | 96.3 | 89.4
31 | CC1=C(C(=O)O)N2C(=O)[C@@H](NC(=O)[C@H](N)C3=CCC=CC3)[C@H]2SC1 [Cephradine] | -16.1 | -9.9 | -10.6 | 7.6 | -7.9 | 72.8 | 107 | 115 | 109 | 100
32 | Nc1nc2ccc(OC(F)(F)F)cc2s1 [Riluzole] | -9.6 | -11.7 | -5.6 | -9.6 | -14 | 111 | 94.7 | 118 | 129 | 83.5
33 | N[C@@H](Cc1c[nH]cn1)C(=O)O [L-Histidine hydrochloride] | -24.7 | 6 | -14 | -26.5 | -13.6 | 117 | 140 | 105 | 120 | 103
34 | N[C@@H]1CONC1=O [D-Cycloserine] | 5.9 | -9.9 | 4.1 | -6.7 | 13.2 | 137 | 89.1 | 112 | 97.3 | 102
35 | Nc1cc(=O)[nH]c(N)n1 [2,6-Diamino-4-pyrimidinone] | -11.3 | -0.9 | -12.3 | -18.4 | -14.4 | 95.3 | 109 | 109 | 107 | 128
36 | CN(C)CCCN1c2ccccc2CCc2ccc(Cl)cc21 [Clomipramine hydrochloride] | -11.7 | -22.3 | -13.4 | -11.2 | 15.4 | 102 | 92.7 | 81.9 | 92.9 | 69
37 | CCCCCCCCCCC/C=C\C(C)(C)/C=C\CCCC(=O)O [7,7-Dimethyl-(5Z,8Z)-eicosadienoic acid] | -2.1 | -16.2 | 7.4 | -8.5 | -4 | 128 | 104 | 104 | 122 | 99.8
38 | CCOC(=O)Nc1ccc(NCc2ccc(F)cc2)nc1N [Flupirtine maleate] | 13.8 | -6 | 0 | -13 | -2.4 | 125 | 112 | 101 | 113 | 150
39 | CC(C)NC[C@H](O)COc1cccc2[nH]ccc12 [S(-)-Pindolol] | 0.3 ± 17 | -3.95 ± 24 | -4.9 ± 18 | -28.3 ± 33 | -24.5 ± 15 | 95.5 ± 2.4 | 106 ± 5.9 | 102 ± 14 | 105 ± 24 | 108 ± 8.7
